{"source": "paper PMC10698284", "experiment_in_all_cases": "affinity purification with mass spectrometry; anti-FLAG M2 agarose, 4 h at 4 °C, 1 mg lysate (0.5% NP40, 50 mM HEPES pH 8.0, 100 mM KCl, 1 mM EDTA, 10% glycerol) of HeLa Flp-In T-REx SLC3A2 KO cells with dox-induced FLAG-SLC3A2 WTseq or site variants; on-bead trypsin digest, DDA and SWATH; control: dox-treated SLC3A2 KO cells; in some samples 10 μM fluvastatin or 250 ng/ml swainsonine for the final 24 h", "key": {"[1]": {"molecular_target": "FLAG-SLC3A2 A273N (human) (UniProt P08195)"}, "[2]": {"molecular_target": "FLAG-SLC3A2 WTseq (human) (UniProt P08195)"}, "[3]": {"molecular_target": "FLAG-SLC3A2 A273N + D355N (human) (UniProt P08195)"}}, "note": "Results are given in words; binding and its absence hold for the method and conditions named. Binding seen in cells or lysates may run through a third protein. A yes stands for co-enrichment or nearness to the bait. Other partners may have been found."}
{"substance": "HSPB1 (from UniProt P04792 1-205)", "values": [{"measurement": "binding", "setting": "[1]", "value": "binds"}, {"measurement": "binding", "setting": "[2]", "value": "binds"}]}
{"substance": "SEC61A2 (from UniProt Q9H9S3 1-476)", "values": [{"measurement": "binding", "setting": "[1]", "value": "binds"}, {"measurement": "binding", "setting": "[2]", "value": "binds"}]}
{"substance": "BSG (from UniProt P35613-2)", "values": [{"measurement": "binding", "setting": "[2]", "value": "binds"}]}
{"substance": "CANX (from UniProt P27824 21-592)", "values": [{"measurement": "binding", "setting": "[1]", "value": "binds"}, {"measurement": "binding", "setting": "[2]", "value": "binds"}]}
{"substance": "HSPA8 (from UniProt P11142 1-646)", "values": [{"measurement": "binding", "setting": "[3]", "value": "binds"}, {"measurement": "binding", "setting": "[1]", "value": "binds"}, {"measurement": "binding", "setting": "[2]", "value": "binds"}]}
{"substance": "CD44 (from UniProt P16070 21-742)", "values": [{"measurement": "binding", "setting": "[2]", "value": "binds"}]}
{"substance": "HSP90AB1 (from UniProt P08238 1-724)", "values": [{"measurement": "binding", "setting": "[3]", "value": "binds"}, {"measurement": "binding", "setting": "[1]", "value": "binds"}, {"measurement": "binding", "setting": "[2]", "value": "binds"}]}
{"substance": "HSP90AA1 (from UniProt P07900 1-732)", "values": [{"measurement": "binding", "setting": "[3]", "value": "binds"}, {"measurement": "binding", "setting": "[1]", "value": "binds"}, {"measurement": "binding", "setting": "[2]", "value": "binds"}]}
{"substance": "SEC61B (from UniProt P60468 1-96)", "values": [{"measurement": "binding", "setting": "[2]", "value": "binds"}]}
{"substance": "HSPA5 (from UniProt P11021 19-654)", "values": [{"measurement": "binding", "setting": "[3]", "value": "binds"}, {"measurement": "binding", "setting": "[1]", "value": "binds"}, {"measurement": "binding", "setting": "[2]", "value": "binds"}]}
{"substance": "ATP1B3 (from UniProt P54709 1-279)", "values": [{"measurement": "binding", "setting": "[2]", "value": "binds"}]}
{"substance": "Arg/Lys/Ornithine high-affinity permease SLC7A1 (from UniProt P30825 1-629)", "values": [{"measurement": "binding", "setting": "[2]", "value": "binds"}]}
{"substance": "SEC61A1 (from UniProt P61619 1-476)", "values": [{"measurement": "binding", "setting": "[1]", "value": "binds"}, {"measurement": "binding", "setting": "[2]", "value": "binds"}]}
